Experimental data published in patent US8207131B2 (Megmilk Snow Brand Co., Ltd., priority 2006, dated 2012).

Test: general procedure: Fmoc solid-phase peptide synthesis; HMP resin
Conditions: whole synthesis, 215 nm, scale 0.25 mmol

Sequence: HPIKHQGLPQ
- final HPLC purity: 98%

No end group written: not given here.
